This is one part of the list.
Legend:
Experiment in all cases: log2 fold change, soluble protein after heating vs DMSO (PISA); higher = thermal stabilisation; K562 cells, 10 uM, 30 min; active = over 0.2 and 3.5 SD of the protein, either way, in both replicates (recomputed)
saracatinib = compound: CN1CCN(CCOc2cc(OC3CCOCC3)c3c(Nc4c(Cl)ccc5c4OCO5)ncnc3c2)CC1 [saracatinib]
Method in brief: (§1)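 K562 cells at 2×10^6 cells/mL were treated with 10 μM compound for 30 min. Aliquots were heated for 3 min across 48°C-58°C, pooled, and extracted in PBS with 0.5% NP-40 at 4°C; soluble protein was the supernatant after 21,000xg for 90 min. Soluble protein was quantified by TMTpro 16plex LC-MS/MS with channel sums equalised, and reported as log2 fold change in thermal stability against DMSO controls, with values from duplicates.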

Chains of the proteins cited; added tags and fusions are not shown. Lines headed by an entry give the natural chain unless they say otherwise; changes in a name come on top.
UniProt Q13636: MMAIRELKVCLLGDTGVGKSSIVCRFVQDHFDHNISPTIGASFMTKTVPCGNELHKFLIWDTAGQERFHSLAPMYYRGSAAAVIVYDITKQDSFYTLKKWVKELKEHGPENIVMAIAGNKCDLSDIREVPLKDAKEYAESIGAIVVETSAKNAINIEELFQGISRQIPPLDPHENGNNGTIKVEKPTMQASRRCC
UniProt P61106, whole entry, looked up: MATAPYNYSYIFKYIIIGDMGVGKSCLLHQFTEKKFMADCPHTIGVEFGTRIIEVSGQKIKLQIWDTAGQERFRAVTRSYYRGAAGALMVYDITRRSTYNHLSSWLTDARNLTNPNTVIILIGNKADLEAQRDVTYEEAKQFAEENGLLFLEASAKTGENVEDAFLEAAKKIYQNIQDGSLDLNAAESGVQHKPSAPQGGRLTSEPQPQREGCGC
UniProt Q9NX57: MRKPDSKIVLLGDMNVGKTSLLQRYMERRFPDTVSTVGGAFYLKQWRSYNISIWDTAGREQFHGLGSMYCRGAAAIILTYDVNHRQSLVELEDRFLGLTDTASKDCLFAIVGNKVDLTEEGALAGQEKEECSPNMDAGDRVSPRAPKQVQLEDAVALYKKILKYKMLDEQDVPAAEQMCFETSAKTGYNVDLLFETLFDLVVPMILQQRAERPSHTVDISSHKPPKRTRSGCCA
UniProt P61018: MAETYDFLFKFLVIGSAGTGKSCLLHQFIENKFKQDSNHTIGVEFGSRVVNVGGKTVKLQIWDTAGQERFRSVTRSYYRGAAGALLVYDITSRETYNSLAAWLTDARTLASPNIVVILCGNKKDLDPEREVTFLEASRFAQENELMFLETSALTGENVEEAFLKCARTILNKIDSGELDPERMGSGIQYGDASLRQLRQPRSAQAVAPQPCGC
UniProt Q9NW64: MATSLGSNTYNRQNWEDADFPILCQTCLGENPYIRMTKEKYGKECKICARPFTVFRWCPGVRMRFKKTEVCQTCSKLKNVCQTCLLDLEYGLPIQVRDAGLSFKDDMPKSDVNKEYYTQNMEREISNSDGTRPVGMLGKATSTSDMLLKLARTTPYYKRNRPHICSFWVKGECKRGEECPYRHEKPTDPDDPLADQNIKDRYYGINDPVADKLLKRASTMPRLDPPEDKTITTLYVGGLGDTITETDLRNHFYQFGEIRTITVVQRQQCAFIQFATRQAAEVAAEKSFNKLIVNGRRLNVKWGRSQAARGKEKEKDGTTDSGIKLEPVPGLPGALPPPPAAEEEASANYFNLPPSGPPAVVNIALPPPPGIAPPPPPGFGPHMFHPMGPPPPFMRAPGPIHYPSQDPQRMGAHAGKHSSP
UniProt O15315: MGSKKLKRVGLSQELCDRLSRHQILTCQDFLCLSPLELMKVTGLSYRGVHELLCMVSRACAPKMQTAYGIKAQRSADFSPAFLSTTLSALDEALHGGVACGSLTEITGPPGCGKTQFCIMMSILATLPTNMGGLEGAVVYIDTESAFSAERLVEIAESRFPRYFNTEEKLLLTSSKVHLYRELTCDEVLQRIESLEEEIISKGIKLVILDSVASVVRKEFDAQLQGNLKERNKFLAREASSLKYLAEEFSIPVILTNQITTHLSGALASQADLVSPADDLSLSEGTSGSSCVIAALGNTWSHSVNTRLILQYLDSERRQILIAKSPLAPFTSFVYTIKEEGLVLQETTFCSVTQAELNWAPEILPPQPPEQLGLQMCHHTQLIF
UniProt P49756, whole entry, looked up: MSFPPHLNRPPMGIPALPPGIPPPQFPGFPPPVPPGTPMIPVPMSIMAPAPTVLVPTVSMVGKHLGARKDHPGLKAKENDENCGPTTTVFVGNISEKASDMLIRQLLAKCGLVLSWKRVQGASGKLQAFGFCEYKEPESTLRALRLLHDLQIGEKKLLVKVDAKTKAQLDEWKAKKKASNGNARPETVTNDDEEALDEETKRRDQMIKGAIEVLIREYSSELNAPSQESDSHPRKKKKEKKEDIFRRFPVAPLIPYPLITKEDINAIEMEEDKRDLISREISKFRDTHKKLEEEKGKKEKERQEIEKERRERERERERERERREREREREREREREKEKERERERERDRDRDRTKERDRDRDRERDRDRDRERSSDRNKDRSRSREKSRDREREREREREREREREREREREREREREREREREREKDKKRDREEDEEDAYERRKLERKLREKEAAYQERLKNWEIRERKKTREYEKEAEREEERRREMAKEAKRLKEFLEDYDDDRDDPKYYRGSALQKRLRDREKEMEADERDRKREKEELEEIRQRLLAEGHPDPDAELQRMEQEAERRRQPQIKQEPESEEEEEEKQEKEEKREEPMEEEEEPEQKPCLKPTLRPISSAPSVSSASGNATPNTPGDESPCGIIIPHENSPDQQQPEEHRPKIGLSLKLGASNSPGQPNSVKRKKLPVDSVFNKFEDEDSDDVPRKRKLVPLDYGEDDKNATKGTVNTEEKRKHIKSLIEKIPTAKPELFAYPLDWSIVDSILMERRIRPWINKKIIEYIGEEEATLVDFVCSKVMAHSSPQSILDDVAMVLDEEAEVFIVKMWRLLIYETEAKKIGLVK
UniProt Q09028, whole entry, looked up: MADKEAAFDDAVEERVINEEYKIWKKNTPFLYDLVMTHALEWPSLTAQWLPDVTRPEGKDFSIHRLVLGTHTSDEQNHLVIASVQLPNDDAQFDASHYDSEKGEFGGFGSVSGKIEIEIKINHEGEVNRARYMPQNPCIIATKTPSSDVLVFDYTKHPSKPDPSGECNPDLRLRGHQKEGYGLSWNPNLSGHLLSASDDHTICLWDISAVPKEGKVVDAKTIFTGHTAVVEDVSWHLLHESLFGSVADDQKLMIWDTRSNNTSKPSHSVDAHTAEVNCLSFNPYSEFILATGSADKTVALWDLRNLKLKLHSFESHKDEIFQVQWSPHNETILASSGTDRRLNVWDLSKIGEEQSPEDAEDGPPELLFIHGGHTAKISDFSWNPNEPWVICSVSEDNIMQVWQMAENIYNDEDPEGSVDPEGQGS
UniProt P51159: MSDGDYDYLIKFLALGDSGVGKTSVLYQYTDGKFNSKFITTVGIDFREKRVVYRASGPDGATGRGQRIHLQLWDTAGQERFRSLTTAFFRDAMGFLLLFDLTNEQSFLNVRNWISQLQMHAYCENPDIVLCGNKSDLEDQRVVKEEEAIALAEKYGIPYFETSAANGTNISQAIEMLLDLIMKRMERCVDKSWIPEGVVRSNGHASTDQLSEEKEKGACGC
UniProt P54136: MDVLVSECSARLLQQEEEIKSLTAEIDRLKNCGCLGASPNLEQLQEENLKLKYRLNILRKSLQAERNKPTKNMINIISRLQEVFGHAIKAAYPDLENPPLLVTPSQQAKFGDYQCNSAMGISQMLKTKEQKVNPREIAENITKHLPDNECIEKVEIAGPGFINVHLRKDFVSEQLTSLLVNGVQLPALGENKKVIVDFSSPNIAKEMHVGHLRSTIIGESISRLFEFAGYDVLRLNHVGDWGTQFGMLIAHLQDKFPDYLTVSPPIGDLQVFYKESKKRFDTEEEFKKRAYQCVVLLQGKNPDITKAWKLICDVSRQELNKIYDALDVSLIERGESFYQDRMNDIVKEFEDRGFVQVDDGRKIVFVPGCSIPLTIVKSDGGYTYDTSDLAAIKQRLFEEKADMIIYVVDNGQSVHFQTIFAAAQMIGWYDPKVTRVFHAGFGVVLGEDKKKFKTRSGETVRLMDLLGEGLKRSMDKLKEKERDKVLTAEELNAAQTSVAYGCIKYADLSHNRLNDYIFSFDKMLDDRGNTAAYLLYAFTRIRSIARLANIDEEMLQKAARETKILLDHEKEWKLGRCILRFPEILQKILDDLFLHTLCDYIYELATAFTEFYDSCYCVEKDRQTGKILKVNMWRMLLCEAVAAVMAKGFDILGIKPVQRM
UniProt Q92696: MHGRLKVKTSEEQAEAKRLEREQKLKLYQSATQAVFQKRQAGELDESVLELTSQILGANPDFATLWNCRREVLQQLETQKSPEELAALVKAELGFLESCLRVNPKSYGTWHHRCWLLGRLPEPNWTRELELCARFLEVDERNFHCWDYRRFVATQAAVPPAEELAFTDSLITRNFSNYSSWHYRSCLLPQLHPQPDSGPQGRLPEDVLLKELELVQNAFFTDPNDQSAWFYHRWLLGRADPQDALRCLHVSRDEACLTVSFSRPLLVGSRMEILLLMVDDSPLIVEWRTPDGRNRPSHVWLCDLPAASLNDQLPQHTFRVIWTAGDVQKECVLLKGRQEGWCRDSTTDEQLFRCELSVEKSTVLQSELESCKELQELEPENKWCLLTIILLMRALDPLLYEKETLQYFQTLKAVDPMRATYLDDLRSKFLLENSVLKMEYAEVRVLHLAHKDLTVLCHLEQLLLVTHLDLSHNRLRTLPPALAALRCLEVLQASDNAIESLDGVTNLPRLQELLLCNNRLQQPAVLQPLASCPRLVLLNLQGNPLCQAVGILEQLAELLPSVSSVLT
UniProt P51148: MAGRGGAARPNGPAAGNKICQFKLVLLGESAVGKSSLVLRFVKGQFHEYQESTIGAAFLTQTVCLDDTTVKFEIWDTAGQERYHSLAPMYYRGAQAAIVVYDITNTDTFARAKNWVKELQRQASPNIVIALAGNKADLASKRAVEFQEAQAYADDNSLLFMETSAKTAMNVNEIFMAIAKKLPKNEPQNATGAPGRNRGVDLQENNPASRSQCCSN
UniProt P98179: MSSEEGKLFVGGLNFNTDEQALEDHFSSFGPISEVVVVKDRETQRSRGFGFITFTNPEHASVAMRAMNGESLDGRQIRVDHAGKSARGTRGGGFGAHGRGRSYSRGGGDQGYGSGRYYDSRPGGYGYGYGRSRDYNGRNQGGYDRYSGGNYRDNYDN
UniProt Q16576, whole entry, looked up: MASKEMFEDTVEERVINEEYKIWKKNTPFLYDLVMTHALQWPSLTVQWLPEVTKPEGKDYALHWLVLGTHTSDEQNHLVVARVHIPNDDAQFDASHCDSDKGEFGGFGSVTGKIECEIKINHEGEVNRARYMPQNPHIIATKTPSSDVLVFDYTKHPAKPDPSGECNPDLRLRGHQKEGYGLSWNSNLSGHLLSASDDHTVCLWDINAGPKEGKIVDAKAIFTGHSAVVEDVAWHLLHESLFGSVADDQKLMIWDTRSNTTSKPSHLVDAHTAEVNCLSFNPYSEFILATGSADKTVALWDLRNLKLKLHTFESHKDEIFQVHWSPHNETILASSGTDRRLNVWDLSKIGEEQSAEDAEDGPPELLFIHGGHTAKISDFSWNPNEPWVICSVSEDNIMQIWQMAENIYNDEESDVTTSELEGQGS

sotrastaurin = compound: CN1CCN(c2nc(C3=C(c4c[nH]c5ccccc45)C(=O)NC3=O)c3ccccc3n2)CC1 [sotrastaurin]
Method in brief: as §1

alvocidib = compound: CN1CC[C@H](c2c(O)cc(O)c3c(=O)cc(-c4ccccc4Cl)oc23)[C@H](O)C1 [alvocidib]
Method in brief: as §1

Tubastatin A = compound: CN1CCc2c(c3ccccc3n2Cc2ccc(C(=O)NO)cc2)C1 [Tubastatin A]
Method in brief: as §1

[1] = compound: CNC(=O)C1=CC=CC=C1NC2=NC(=NC=C2Cl)NC3=C(C=C(C=C3)N4CCOCC4)OC
Method in brief: as §1

defactinib = compound: CNC(=O)c1ccc(Nc2ncc(C(F)(F)F)c(NCc3nccnc3N(C)S(C)(=O)=O)n2)cc1 [defactinib]
Method in brief: as §1

rucaparib = compound: CNCc1ccc(-c2[nH]c3cc(F)cc4c3c2CCNC4=O)cc1 [rucaparib]
Method in brief: as §1

[2] = compound: CNc1nc(-c2ccc3c(N)n[nH]c3c2)cc(N2C[C@@H](C(=O)NC3CCCCC3)CC[C@H]2C)n1
Method in brief: as §1

encorafenib = compound: COC(=O)N[C@@H](C)CNc1nccc(-c2cn(C(C)C)nc2-c2cc(Cl)cc(NS(C)(=O)=O)c2F)n1 [encorafenib]
Method in brief: as §1

[3] = compound: COC(=O)[C@H](CCSC)NC(=O)C1=C(C=C(C=C1)NC[C@H](CS)N)C2=CC=CC=C2
Method in brief: as §1

[4] = compound: COC1=CC=C(C=C1)CN2C=CC3=C2C=C(C=C3)C(=O)NO
Method in brief: as §1

filanesib = compound: CON(C)C(=O)N1N=C(c2cc(F)ccc2F)S[C@@]1(CCCN)c1ccccc1 [filanesib]
Method in brief: as §1

zotarolimus = compound: CO[C@H]1C[C@@H]2CC[C@@H](C)[C@@](O)(O2)C(=O)C(=O)N2CCCC[C@H]2C(=O)O[C@H]([C@H](C)C[C@@H]2CC[C@H](n3cnnn3)[C@H](OC)C2)CC(=O)[C@H](C)/C=C(\C)[C@@H](O)[C@@H](OC)C(=O)[C@H](C)C[C@H](C)/C=C/C=C/C=C/1C [zotarolimus]
Method in brief: as §1

idasanutlin = compound: COc1cc(C(=O)O)ccc1NC(=O)[C@@H]1N[C@@H](CC(C)(C)C)[C@](C#N)(c2ccc(Cl)cc2F)[C@H]1c1cccc(Cl)c1F [idasanutlin]
Method in brief: as §1

alisertib = compound: COc1cc(Nc2ncc3c(n2)-c2ccc(Cl)cc2C(c2c(F)cccc2OC)=NC3)ccc1C(=O)O [alisertib]
Method in brief: as §1

[5] = compound: COc1cc2nc(-c3cc(F)ccc3O)nc(N[C@@H]3CNC[C@H]3C(C)(C)O)c2cc1OC
Method in brief: as §1

gefitinib = compound: COc1cc2ncnc(Nc3ccc(F)c(Cl)c3)c2cc1OCCCN1CCOCC1 [gefitinib]
Method in brief: as §1

[6] = compound: COc1cccc2cc(-c3nc([C@H]4CC[C@H](C(=O)O)CC4)n4ncnc(N)c34)[nH]c12
Method in brief: as §1

lapatinib = compound: CS(=O)(=O)CCNCc1ccc(-c2ccc3ncnc(Nc4ccc(OCc5cccc(F)c5)c(Cl)c4)c3c2)o1 [lapatinib]
Method in brief: as §1

pictilisib = compound: CS(=O)(=O)N1CCN(Cc2cc3nc(-c4cccc5[nH]ncc45)nc(N4CCOCC4)c3s2)CC1 [pictilisib]
Method in brief: as §1

Measured: log2 fold change

RAB31 (UniProt Q13636)
inactive: saracatinib 0.063 | sotrastaurin 0.034 | alvocidib 0.029 | Tubastatin A -0.029 | [1] -0.018 | defactinib -0.003 | rucaparib -0.034 | [2] -0.042 | encorafenib 0.002 | [3] -0.017 | [4] 0 | filanesib -0.054 | zotarolimus 0.006 | idasanutlin -0.023 | alisertib -0.025 | [5] 0.031 | gefitinib 0.006 | [6] -0.005 | lapatinib 0.008 | pictilisib 0.055

RAB14 (UniProt P61106)
inactive: saracatinib 0.049 | sotrastaurin 0.045 | alvocidib -0.004 | Tubastatin A -0.02 | [1] -0.02 | defactinib -0.006 | rucaparib -0.027 | [2] -0.026 | encorafenib -0.009 | [3] -0.018 | [4] 0.027 | filanesib -0.02 | zotarolimus 0.013 | idasanutlin -0.023 | alisertib -0.013 | [5] 0.033 | gefitinib -0.003 | [6] 0.041 | lapatinib 0.013 | pictilisib 0.06

RAB20 (UniProt Q9NX57)
inactive: saracatinib 0.095 | sotrastaurin 0.144 | alvocidib -0.004 | Tubastatin A -0.027 | [1] 0.04 | defactinib -0.005 | rucaparib 0.035 | [2] -0.003 | encorafenib -0.028 | [3] 0.056 | [4] -0.095 | filanesib -0.053 | zotarolimus 0.022 | idasanutlin -0.073 | alisertib -0.017 | [5] 0.104 | gefitinib -0.033 | [6] 0.045 | lapatinib -0.005 | pictilisib 0.019

RAB4B isoform 2 (UniProt P61018)
inactive: saracatinib 0.013 | sotrastaurin 0.06 | alvocidib -0.009 | Tubastatin A -0.002 | [1] -0.014 | defactinib -0.037 | rucaparib -0.022 | [2] -0.037 | encorafenib -0.024 | [3] 0.012 | [4] -0.079 | filanesib 0.001 | zotarolimus 0.003 | idasanutlin -0.077 | alisertib -0.033 | [5] 0.026 | gefitinib 0.048 | [6] 0.037 | lapatinib 0.004 | pictilisib 0.057

RBM22 (UniProt Q9NW64)
inactive: saracatinib 0.016 | sotrastaurin -0.013 | Tubastatin A -0.065 | [1] -0.037 | defactinib -0.05 | rucaparib 0.04 | [2] -0.155 | encorafenib 0.036 | [3] 0.012 | [4] -0.105 | filanesib 0.096 | zotarolimus 0 | idasanutlin 0.056 | alisertib -0.002 | [5] 0.021 | gefitinib -0.058 | [6] 0.083 | lapatinib 0.036 | pictilisib -0.031

RAD51B (UniProt O15315)
inactive: saracatinib 0.176 | sotrastaurin 0.088 | alvocidib -0.133 | Tubastatin A 0.018 | [1] -0.039 | rucaparib 0.047 | [2] -0.005 | encorafenib -0.197 | filanesib -0.028 | zotarolimus -0.028 | idasanutlin -0.001 | alisertib 0.101 | [5] 0.072 | gefitinib -0.02 | [6] 0.093 | lapatinib 0.004 | pictilisib -0.044

RBM25 (UniProt P49756)
active: defactinib -0.24 | [4] 0.285
inactive: saracatinib -0.025 | sotrastaurin -0.109 | Tubastatin A 0.058 | [1] -0.164 | rucaparib 0.03 | [2] -0.091 | encorafenib -0.094 | [3] 0.014 | filanesib 0.112 | zotarolimus 0.022 | idasanutlin 0.022 | alisertib -0.044 | [5] -0.035 | gefitinib 0.001 | [6] 0.043 | lapatinib -0.024 | pictilisib 0.052

RBBP4 (UniProt Q09028)
inactive: saracatinib -0.063 | sotrastaurin 0.051 | alvocidib 0.033 | Tubastatin A 0.013 | [1] -0.035 | defactinib 0.015 | rucaparib -0.029 | [2] -0.056 | encorafenib 0.024 | [3] -0.01 | [4] 0.112 | filanesib 0.021 | zotarolimus 0.002 | idasanutlin 0.002 | alisertib -0.037 | [5] -0.031 | gefitinib -0.002 | [6] 0.045 | lapatinib -0.021 | pictilisib 0.026

Fetched one by one from the entries so far (two):
RBM25 (UniProt P49756)
active: defactinib -0.24 | [4] 0.285
inactive: saracatinib -0.025 | sotrastaurin -0.109 | Tubastatin A 0.058 | [1] -0.164 | rucaparib 0.03 | [2] -0.091 | encorafenib -0.094 | [3] 0.014 | filanesib 0.112 | zotarolimus 0.022 | idasanutlin 0.022 | alisertib -0.044 | [5] -0.035 | gefitinib 0.001 | [6] 0.043 | lapatinib -0.024 | pictilisib 0.052

RAB4B isoform 2 (UniProt P61018)
inactive: saracatinib 0.013 | sotrastaurin 0.06 | alvocidib -0.009 | Tubastatin A -0.002 | [1] -0.014 | defactinib -0.037 | rucaparib -0.022 | [2] -0.037 | encorafenib -0.024 | [3] 0.012 | [4] -0.079 | filanesib 0.001 | zotarolimus 0.003 | idasanutlin -0.077 | alisertib -0.033 | [5] 0.026 | gefitinib 0.048 | [6] 0.037 | lapatinib 0.004 | pictilisib 0.057

Remaining list, next part

RANBP2 (UniProt P49792)
active: [4] 0.334
inactive: saracatinib -0.011 | sotrastaurin -0.06 | Tubastatin A -0.016 | [1] 0.886 | defactinib -0.009 | rucaparib -0.028 | [2] -0.016 | encorafenib -0.045 | [3] -0.03 | filanesib -0.048 | zotarolimus 0.029 | idasanutlin -0.005 | alisertib 0.079 | [5] 0.044 | gefitinib 0.05 | [6] -0.097 | lapatinib -0.07 | pictilisib -0.002

RAB27A (UniProt P51159)
inactive: saracatinib 0.034 | sotrastaurin 0.049 | alvocidib -0.004 | Tubastatin A -0.049 | [1] 0.027 | defactinib 0.011 | rucaparib -0.045 | [2] -0.043 | encorafenib 0.008 | [3] 0.027 | [4] -0.065 | filanesib -0.054 | zotarolimus 0.017 | idasanutlin -0.073 | alisertib -0.111 | [5] 0.017 | gefitinib 0.026 | [6] 0.069 | lapatinib 0.009 | pictilisib 0.023

RARS (UniProt P54136)
inactive: saracatinib -0.103 | sotrastaurin -0.192 | Tubastatin A 0.008 | [1] -0.073 | defactinib 0.187 | rucaparib 0.367 | [2] 0.138 | encorafenib 0.217 | [3] -0.024 | [4] -0.045 | filanesib 0.079 | zotarolimus 0.049 | idasanutlin 0.052 | alisertib -0.059 | [5] -0.032 | gefitinib -0.025 | [6] -0.203 | lapatinib -0.008 | pictilisib -0.07

RABGGTA (UniProt Q92696)
inactive: saracatinib 0.013 | sotrastaurin 0.102 | Tubastatin A -0.044 | [1] -0.034 | defactinib -0.034 | rucaparib -0.015 | [2] 0.001 | encorafenib 0.004 | [3] -0.024 | [4] 0.019 | filanesib -0.013 | zotarolimus 0.022 | idasanutlin -0.019 | alisertib 0.016 | [5] -0.007 | gefitinib 0.041 | [6] 0.017 | lapatinib 0.002 | pictilisib 0.067

RAB5C isoform 2 (UniProt P51148)
inactive: saracatinib 0.08 | sotrastaurin -0.011 | Tubastatin A 0.013 | [1] -0.013 | defactinib -0.011 | rucaparib -0.02 | [2] 0.003 | encorafenib -0.039 | [3] 0.017 | [4] -0.002 | filanesib -0.053 | zotarolimus -0.015 | idasanutlin -0.055 | alisertib -0.095 | [5] 0.015 | gefitinib 0.013 | [6] 0.038 | lapatinib -0.027 | pictilisib -0.017

RACK1 (UniProt D6RF23)
inactive: saracatinib -0.125 | sotrastaurin -0.029 | alvocidib 0.223 | Tubastatin A -0.05 | [1] -0.081 | defactinib 0.111 | rucaparib -0.15 | [2] -0.177 | encorafenib 0.095 | [3] -0.044 | [4] -0.472 | filanesib 0.022 | zotarolimus -0.216 | idasanutlin 0.029 | alisertib 0.138 | [5] 0.142 | [6] 0.291 | lapatinib -0.36 | pictilisib 0.187

RBM3 (UniProt P98179)
inactive: saracatinib -0.07 | sotrastaurin 0.076 | alvocidib 0.106 | Tubastatin A 0.022 | [1] -0.018 | defactinib 0.273 | rucaparib 0.259 | [2] 0.034 | encorafenib 0.03 | [3] 0.024 | [4] -0.034 | filanesib 0.273 | zotarolimus -0.027 | idasanutlin 0.232 | alisertib -0.131 | [5] 0.054 | gefitinib -0.108 | [6] -0.054 | lapatinib -0.109 | pictilisib 0.017

RAC3 (UniProt P60763)
inactive: saracatinib 0.036 | sotrastaurin 0.11 | Tubastatin A -0.081 | [1] -0.064 | defactinib 0.011 | rucaparib -0.134 | [2] 0.085 | encorafenib -0.07 | [3] 0.027 | [4] 0.025 | filanesib 0.031 | zotarolimus 0.125 | idasanutlin 0.017 | alisertib -0.038 | [5] -0.067 | gefitinib 0.017 | [6] 0.026 | lapatinib 0.061 | pictilisib 0.071

RBBP7 isoform 2 (UniProt Q16576)
inactive: saracatinib 0 | sotrastaurin 0.001 | alvocidib -0.008 | Tubastatin A -0.028 | [1] 0.015 | defactinib -0.038 | rucaparib -0.082 | [2] -0.04 | encorafenib 0.014 | [3] -0.002 | [4] -0.042 | filanesib -0.068 | zotarolimus 0.015 | idasanutlin -0.02 | alisertib 0.003 | [5] 0.029 | gefitinib -0.006 | [6] 0.056 | lapatinib -0.046 | pictilisib 0.011

— the supplement of paper PMC10849652
